Experimental data from patent publication US11576382B2, “Naphthalene isoxazoline compounds for controlling invertebrate pests” (FMC Corporation, priority 2018, dated 2023).
Some entries share one result that the patent states for a list of compounds.

How the values were obtained:
Type in all cases: in vivo
[1] = system: diamondback moth (Plutella xylostella (L.)); experiment: Test A: control of diamondback moth, foliar spray on mustard plant; conditions: assessed after 6 days, very good to excellent levels of control efficacy
[2] = system: fall armyworm (Spodoptera frugiperda (J. E. Smith)); experiment: Test B: control of fall armyworm, foliar spray on corn (maize) plant; conditions: assessed after 6 days, very good to excellent levels of control efficacy
[3] = system: potato leafhopper (Empoasca fabae (Harris)); experiment: Test D: control of potato leafhopper through contact and/or systemic means; conditions: Soleil bean plant, assessed after 6 days
Experimental: Formulation and Spray Methodology for Tests A-H
Test compounds were formulated using a solution containing 10% acetone, 90% water and 300 ppm Activator 90® non-ionic surfactant (Loveland Products, Loveland, Colo., USA). The formulated compounds were applied in 1 mL of liquid through an atomizer nozzle positioned 1.27 cm (0.5 inches) above the top of each test unit. Test compounds were sprayed at the rates indicated, and each test was replicated three times.
For evaluating control of potato leafhopper (Empoasca fabae (Harris)) through contact and/or systemic means, the test unit consisted of a small open container with a 5-6-day-old Soleil bean plant (primary leaves emerged) inside. White sand was added to the top of the soil, and one of the primary leaves was excised prior to application of the test compound.
Test compounds were formulated and sprayed at 250, 50, 10 and 2 ppm. After spraying of the formulated test compound, the test units were allowed to dry for 1 hour before they were post-infested with 5 potato leafhoppers (18-to-21-day-old adults). A black, screened cap was placed on the top of the test unit, and the test units were held for 6 days in a growth chamber at 20° C. and 70% relative humidity. Each test unit was then visually assessed for insect mortality.

[4] = system: Western Flower Thrips (Frankliniellla occidentalis (Pergande)); experiment: Test H: control of Western Flower Thrips through contact and/or systemic means; conditions: Soleil bean plant, assessed after 6 days, very good to excellent levels of control efficacy

Row | Structure (SMILES) | control efficacy: feeding damage (40% or less feeding damage and/or 100% mortality) ([1]; sprayed at 2 ppm) | control efficacy: feeding damage (40% or less feeding damage and/or 100% mortality) ([1]; sprayed at 10 ppm) | control efficacy: feeding damage (40% or less feeding damage and/or 100% mortality) ([2]; sprayed at 2 ppm) | control efficacy: feeding damage (40% or less feeding damage and/or 100% mortality) ([2]; sprayed at 10 ppm) | mortality ([3]; sprayed at 10 ppm) | mortality ([3]; sprayed at 50 ppm) | control efficacy: plant damage (30% or less plant damage and/or 100% mortality) ([4]; sprayed at 10 ppm) | control efficacy: plant damage (30% or less plant damage and/or 100% mortality) ([4]; sprayed at 2 ppm)
1 | COC(=O)C(C)NC(=O)c1ccc(C2=NOC(c3ccc(F)c(C(F)(F)F)c3)(C(F)(F)F)C2)c2ccccc12 (mixture of isomers) [Compound 65] | ≤ 40% | ≤ 40% | ≤ 40% | ≤ 40% | at least 80% | at least 80% | ≤ 30% | –
2 | CCN(C)C(=O)[C@H](COC)NC(=O)c1ccc(C2=NOC(c3cc(Cl)c(F)c(Cl)c3)(C(F)(F)F)C2)c2ccccc12 (stereo partly drawn) [Compound 5] | ≤ 40% | ≤ 40% | – | – | – | at least 80% | ≤ 30% | –
3 | O=C(NCc1cccnn1)c1ccc(C2=NOC(c3cc(Cl)c(F)c(Cl)c3)(C(F)(F)F)C2)c2ccccc12 (stereo not drawn) [Compound 12] | ≤ 40% | ≤ 40% | – | ≤ 40% | – | at least 80% | ≤ 30% | –
4 | O=C(NCc1ccncn1)c1ccc(C2=NOC(c3cc(Cl)c(F)c(Cl)c3)(C(F)(F)F)C2)c2ccccc12 (stereo not drawn) [Compound 13] | ≤ 40% | ≤ 40% | ≤ 40% | ≤ 40% | at least 80% | at least 80% | ≤ 30% | ≤ 30%
5 | O=C(NCc1cncnc1)c1ccc(C2=NOC(c3cc(Cl)c(F)c(Cl)c3)(C(F)(F)F)C2)c2ccccc12 (stereo not drawn) [Compound 14] | ≤ 40% | ≤ 40% | – | ≤ 40% | at least 80% | at least 80% | ≤ 30% | ≤ 30%
6 | Cn1ncnc1CNC(=O)c1ccc(C2=NOC(c3cc(Cl)c(F)c(Cl)c3)(C(F)(F)F)C2)c2ccccc12 (stereo not drawn) [Compound 27] | ≤ 40% | ≤ 40% | – | ≤ 40% | at least 80% | at least 80% | ≤ 30% | ≤ 30%
7 | Cn1ccnc1CNC(=O)c1ccc(C2=NOC(c3cc(Cl)c(F)c(Cl)c3)(C(F)(F)F)C2)c2ccccc12 (stereo not drawn) [Compound 31] | ≤ 40% | ≤ 40% | – | ≤ 40% | – | at least 80% | ≤ 30% | –
8 | CC(NC(=O)c1ccc(C2=NOC(c3ccc(F)c(C(F)(F)F)c3)(C(F)(F)F)C2)c2ccccc12)C(N)=O (stereo not drawn) [Compound 43] | ≤ 40% | ≤ 40% | ≤ 40% | ≤ 40% | at least 80% | at least 80% | ≤ 30% | ≤ 30%
